{
  "source": "the supplement of paper PMC4604168 (melanoma cell lines)",
  "note": "This is one part of the list. Many values rest on one well or one pass, so single values are uncertain.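 Cells were imaged in 1,536-well plates, and nuclei stained with an antibody against cleaved PARP were counted against all DNA-stained nuclei to give the apoptosis fraction. Screening doses were chosen to leave most cells alive, and resting and induced cleaved-PARP levels differ strongly between cell lines.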",
  "data": [
    {"test_system": "WM451Lu", "assay": "cleaved PARP positive nuclei fraction relative to DMSO control; melanoma cells; higher = more apoptosis", "details": "library dose: low library concentration; 72 h", "units": {"cleaved PARP positive nuclei fraction": "%"}, "values": [
      {"smiles": "C=CCNC1=C2C[C@@H](C)C[C@H](OC)[C@H](O)[C@@H](C)/C=C(\\C)[C@H](OC(N)=O)[C@@H](OC)/C=C\\C=C(/C)C(=O)NC(=CC1=O)C2=O", "note": "[Tanespimycin] + Cn1c(Nc2ccc(C(F)(F)F)cc2)nc2cc(Oc3ccnc(-c4ncc(C(F)(F)F)[nH]4)c3)ccc21 [CHIR265] (first compound 0.002 µM, partner dose 0.08 µM)", "cleaved PARP positive nuclei fraction": 235},
      {"smiles": "Clc1ccc(Nc2nnc(Cc3ccncc3)c3ccccc23)cc1", "note": "[vatalanib] + CC(C)(C)c1cnc(CSc2cnc(NC(=O)C3CCNCC3)s2)o1 [SNS-032] (first compound 2 µM, partner dose 0.01 µM)", "cleaved PARP positive nuclei fraction": 54.3},
      {"smiles": "C[C@]1(c2nc3c(C(N)=O)cccc3[nH]2)CCCN1", "note": "[Veliparib] + CC(C)(C)c1cnc(CSc2cnc(NC(=O)C3CCNCC3)s2)o1 [SNS-032] (first compound 1.4 µM, partner dose 0.01 µM)", "cleaved PARP positive nuclei fraction": 203},
      {"smiles": "C#Cc1cccc(Nc2ncnc3cc(OCCOC)c(OCCOC)cc23)c1", "note": "[erlotinib] + CN(C)S(=O)(=O)c1ccc2c(c1)/C(=C/c1cc3c([nH]1)CCCC3)C(=O)N2 [SU6656] (first compound 0.8 µM, partner dose 0.4 µM)", "cleaved PARP positive nuclei fraction": 300},
      {"smiles": "Cc1ccc(NC(=O)c2cccc(N(C)C)c2)cc1NC(=O)c1ccc(O)cc1", "note": "+ Oc1cc(-c2nc(-c3ccccc3)[nH]c2-c2ccncc2)ccc1Cl [L779450] (first compound 2 µM, partner dose 0.2 µM)", "cleaved PARP positive nuclei fraction": 237},
      {"smiles": "O=C(CCCCCCC(=O)Nc1ccccc1)NO", "note": "[vorinostat] + CCc1ccc(CCOc2ccc(CC3SC(=O)NC3=O)cc2)nc1 [pioglitazone] (first compound 0.08 µM, partner dose 2 µM)", "cleaved PARP positive nuclei fraction": 33.8},
      {"smiles": "C#Cc1cccc(Nc2ncnc3cc(OCCOC)c(OCCOC)cc23)c1", "note": "[erlotinib] + O=C(Nc1ccccc1)c1cc([N+](=O)[O-])ccc1Cl [GW9662] (first compound 0.8 µM, partner dose 2 µM)", "cleaved PARP positive nuclei fraction": 74.4},
      {"smiles": "Cc1cc(N2CCOCC2)cc2[nH]c(-c3c(NC[C@@H](O)c4cccc(Cl)c4)cc[nH]c3=O)nc12", "note": "+ O=C1NC(=O)/C(=C/c2ccc(-c3ccc(F)cc3O)o2)S1 [AS252424] (first compound 0.2 µM, partner dose 1 µM)", "cleaved PARP positive nuclei fraction": 101},
      {"smiles": "C#Cc1cccc(Nc2ncnc3cc(OCCOC)c(OCCOC)cc23)c1", "note": "[erlotinib] + CC1(C)NC(=O)N(c2ccc([N+](=O)[O-])c(C(F)(F)F)c2)C1=O [nilutamide] (first compound 0.8 µM, partner dose 1 µM)", "cleaved PARP positive nuclei fraction": 146},
      {"smiles": "CO[C@@H]1[C@H](N(C)C(=O)c2ccccc2)C[C@H]2O[C@]1(C)n1c3ccccc3c3c4c(c5c6ccccc6n2c5c31)C(=O)NC4", "note": "[Midostaurin] + CCCCCCCCCCCC1=C(O)C(=O)C=C(O)C1=O [Embelin] (first compound 0.08 µM, partner dose 1.2 µM)", "cleaved PARP positive nuclei fraction": 416},
      {"smiles": "NC(=O)Nc1cc(-c2cccc(F)c2)sc1C(=O)N[C@H]1CCCNC1", "note": "+ CN(C)S(=O)(=O)c1ccc2c(c1)/C(=C/c1cc3c([nH]1)CCCC3)C(=O)N2 [SU6656] (first compound 0.02 µM, partner dose 0.4 µM)", "cleaved PARP positive nuclei fraction": 28.1},
      {"smiles": "Clc1ccc(Nc2nnc(Cc3ccncc3)c3ccccc23)cc1", "note": "[vatalanib] + Cc1cc(N2CCOCC2)cc2[nH]c(-c3c(NC[C@@H](O)c4cccc(Cl)c4)cc[nH]c3=O)nc12 [BMS536924] (first compound 2 µM, partner dose 0.2 µM)", "cleaved PARP positive nuclei fraction": 61.1},
      {"smiles": "Cc1cc(N2CCOCC2)cc2[nH]c(-c3c(NC[C@@H](O)c4cccc(Cl)c4)cc[nH]c3=O)nc12", "note": "+ OCCn1cc(-c2cnc3nnn(Cc4ccc5ncccc5c4)c3n2)cn1 [PF04217903] (first compound 0.2 µM, partner dose 1 µM)", "cleaved PARP positive nuclei fraction": 290},
      {"smiles": "COc1cc(Nc2ncc(F)c(Nc3ccc4c(n3)NC(=O)C(C)(C)O4)n2)cc(OC)c1OC", "note": "[Tamatinib] + Oc1nc(-c2ccc(C(F)(F)F)cc2)nc2c1CSCC2 [XAV939] (first compound 0.4 µM, partner dose 2 µM)", "cleaved PARP positive nuclei fraction": 44.9},
      {"smiles": "Clc1ccc(Nc2nnc(Cc3ccncc3)c3ccccc23)cc1", "note": "[vatalanib] + O=C(Nc1cccc(Cl)c1)Nc1ncc(CCNc2ncnc3ccsc23)s1 [SNS314] (first compound 2 µM, partner dose 0.0008 µM)", "cleaved PARP positive nuclei fraction": 70.2},
      {"smiles": "NC(=O)Nc1cc(-c2cccc(F)c2)sc1C(=O)N[C@H]1CCCNC1", "note": "+ COc1ccc(-c2ccc3c(N4CCOCC4)nc(N4C[C@@H](C)O[C@@H](C)C4)nc3n2)cc1CO [KU0063794] (first compound 0.02 µM, partner dose 0.02 µM)", "cleaved PARP positive nuclei fraction": 176},
      {"smiles": "C[C@@H]1CCN(C(=O)CC#N)C[C@@H]1N(C)c1ncnc2[nH]ccc12", "note": "+ COc1ccc(-c2ccc3c(N4CCOCC4)nc(N4C[C@@H](C)O[C@@H](C)C4)nc3n2)cc1CO [KU0063794] (first compound 1 µM, partner dose 0.02 µM)", "cleaved PARP positive nuclei fraction": 283},
      {"smiles": "Clc1ccc(Nc2nnc(Cc3ccncc3)c3ccccc23)cc1", "note": "[vatalanib] + O=C1NC(=O)/C(=C/c2ccc(-c3ccc(F)cc3O)o2)S1 [AS252424] (first compound 2 µM, partner dose 1 µM)", "cleaved PARP positive nuclei fraction": 61.8},
      {"smiles": "C[C@]1(c2nc3c(C(N)=O)cccc3[nH]2)CCCN1", "note": "[Veliparib] + COc1cc2ncnc(Nc3ccc(Oc4ccccc4)cc3)c2cc1OC [SrcI1] (first compound 1.4 µM, partner dose 2 µM)", "cleaved PARP positive nuclei fraction": 106},
      {"smiles": "Cn1nnc2c(C(N)=O)ncn2c1=O", "note": "[temozolomide] + Cc1ccc(NC(=O)c2cccc(N(C)C)c2)cc1NC(=O)c1ccc(O)cc1 [ZM336372] (first compound 2 µM, partner dose 2 µM)", "cleaved PARP positive nuclei fraction": 129},
      {"smiles": "CC1(C)NC(=O)N(c2ccc([N+](=O)[O-])c(C(F)(F)F)c2)C1=O", "note": "[nilutamide] + O=C(O)c1ccc(-c2c[nH]c3ncc(-c4ccccc4)cc23)cc1C1CCCC1 [GSK650394] (first compound 1 µM, partner dose 0.16 µM)", "cleaved PARP positive nuclei fraction": 29.2},
      {"smiles": "NC(=O)Nc1cc(-c2cccc(F)c2)sc1C(=O)N[C@H]1CCCNC1", "note": "+ OCCn1cc(-c2cnc3nnn(Cc4ccc5ncccc5c4)c3n2)cn1 [PF04217903] (first compound 0.02 µM, partner dose 1 µM)", "cleaved PARP positive nuclei fraction": 61.1},
      {"smiles": "C[C@@H]1CCN(C(=O)CC#N)C[C@@H]1N(C)c1ncnc2[nH]ccc12", "note": "+ COC(=O)c1sccc1S(=O)(=O)Nc1ccc(Nc2ccccc2)cc1OC [GSK0660] (first compound 1 µM, partner dose 1 µM)", "cleaved PARP positive nuclei fraction": 161},
      {"smiles": "CC(=O)c1c(C)c2cnc(Nc3ccc(N4CCNCC4)cn3)nc2n(C2CCCC2)c1=O", "note": "[palbociclib] + CO[C@@H]1[C@H](N(C)C(=O)c2ccccc2)C[C@H]2O[C@]1(C)n1c3ccccc3c3c4c(c5c6ccccc6n2c5c31)C(=O)NC4 [Midostaurin] (first compound 0.04 µM, partner dose 0.08 µM)", "cleaved PARP positive nuclei fraction": 48.7},
      {"smiles": "Cc1nc(Nc2ncc(C(=O)Nc3c(C)cccc3Cl)s2)cc(N2CCN(CCO)CC2)n1", "note": "[dasatanib] + COc1cc2c(Oc3ccc4[nH]c(C)cc4c3F)ncnc2cc1OCCCN1CCCC1 [cediranib] (first compound 0.004 µM, partner dose 0.4 µM)", "cleaved PARP positive nuclei fraction": 176},
      {"smiles": "OCc1c[nH]c2ccccc12", "note": "[Indole-3-carbinol] + CO[C@@H]1[C@H](N(C)C(=O)c2ccccc2)C[C@H]2O[C@]1(C)n1c3ccccc3c3c4c(c5c6ccccc6n2c5c31)C(=O)NC4 [Midostaurin] (first compound 0.8 µM, partner dose 0.08 µM)", "cleaved PARP positive nuclei fraction": 177},
      {"smiles": "C=CCNC1=C2C[C@@H](C)C[C@H](OC)[C@H](O)[C@@H](C)/C=C(\\C)[C@H](OC(N)=O)[C@@H](OC)/C=C\\C=C(/C)C(=O)NC(=CC1=O)C2=O", "note": "[Tanespimycin] + Cc1cc([N+](=O)[O-])ccc1NS(=O)(=O)c1cc(Cl)ccc1Cl [FH535] (first compound 0.002 µM, partner dose 1 µM)", "cleaved PARP positive nuclei fraction": 176},
      {"smiles": "Cc1cc(N2CCOCC2)cc2[nH]c(-c3c(NC[C@@H](O)c4cccc(Cl)c4)cc[nH]c3=O)nc12", "note": "+ C[C@@H]1CCN(C(=O)CC#N)C[C@@H]1N(C)c1ncnc2[nH]ccc12 [CP690550] (first compound 0.2 µM, partner dose 1 µM)", "cleaved PARP positive nuclei fraction": 166},
      {"smiles": "O=C(CCCCCCC(=O)Nc1ccccc1)NO", "note": "[vorinostat] + C[C@@H]1CCN(C(=O)CC#N)C[C@@H]1N(C)c1ncnc2[nH]ccc12 [CP690550] (first compound 0.08 µM, partner dose 1 µM)", "cleaved PARP positive nuclei fraction": 195},
      {"smiles": "Cc1cc(N2CCOCC2)cc2[nH]c(-c3c(NC[C@@H](O)c4cccc(Cl)c4)cc[nH]c3=O)nc12", "note": "+ CCc1ccc(CCOc2ccc(CC3SC(=O)NC3=O)cc2)nc1 [pioglitazone] (first compound 0.2 µM, partner dose 2 µM)", "cleaved PARP positive nuclei fraction": 65.8},
      {"smiles": "O=C(CCCCCCC(=O)Nc1ccccc1)NO", "note": "[vorinostat] + OCCn1cc(-c2cnc3nnn(Cc4ccc5ncccc5c4)c3n2)cn1 [PF04217903] (first compound 0.08 µM, partner dose 1 µM)", "cleaved PARP positive nuclei fraction": 152},
      {"smiles": "Cc1cc(N2CCOCC2)cc2[nH]c(-c3c(NC[C@@H](O)c4cccc(Cl)c4)cc[nH]c3=O)nc12", "note": "+ Cc1cc([N+](=O)[O-])ccc1NS(=O)(=O)c1cc(Cl)ccc1Cl [FH535] (first compound 0.2 µM, partner dose 1 µM)", "cleaved PARP positive nuclei fraction": 257}
    ]}
  ]
}
